Some peptides are written in HELM: one residue between dots, names in brackets for other building blocks, links after the first $.
Assay: general procedure: Boc solid-phase peptide synthesis; 4-methyl benzhydrylamine resin
Conditions: whole synthesis

Row | Substance | crude mass (scale 0.5 mmol) | further results
1 | PEPTIDE1{C.G.G.C.W.T.W.V.[am]}$PEPTIDE1,PEPTIDE1,1:R3-4:R3$$$V2.0 | 535 mg | 
2 | PEPTIDE1{C.R.G.G.C.W.T.W.V.[am]}$PEPTIDE1,PEPTIDE1,1:R3-5:R3$$$V2.0 | 830 mg | 
3 | PEPTIDE1{E.K.I.G.G.K.W.T.W.V.[am]}$PEPTIDE1,PEPTIDE1,1:R3-6:R3$$$V2.0 | 321 mg | 
4 | PEPTIDE1{K.C.G.G.C.W.T.W.V.[am]}$PEPTIDE1,PEPTIDE1,2:R3-5:R3$$$V2.0 | 810 mg | 
5 | PEPTIDE1{K.K.I.G.G.E.W.T.W.V.[am]}$PEPTIDE1,PEPTIDE1,1:R3-6:R3$$$V2.0 | 530 mg | 
6 | PEPTIDE1{R.C.I.G.G.C.W.T.W.V.[am]}$PEPTIDE1,PEPTIDE1,2:R3-6:R3$$$V2.0 | 885 mg | 
7 | PEPTIDE1{R.K.C.G.G.C.W.T.W.V.[am]}$PEPTIDE1,PEPTIDE1,3:R3-6:R3$$$V2.0 | 1144 mg | 
8 | PEPTIDE1{R.K.I.E.G.I.W.K.W.V.[am]}$PEPTIDE1,PEPTIDE1,4:R3-8:R3$$$V2.0 | 829 mg | 
9 | PEPTIDE1{R.K.I.G.G.C.W.T.W.C.[am]}$PEPTIDE1,PEPTIDE1,6:R3-10:R3$$$V2.0 | 1111 mg | 
10 | PEPTIDE1{R.K.I.K.G.I.W.E.W.V.[am]}$PEPTIDE1,PEPTIDE1,4:R3-8:R3$$$V2.0 | 633 mg | 
11 | PEPTIDE1{R.K.[D-Pen].G.G.C.W.T.W.V.[am]}$PEPTIDE1,PEPTIDE1,3:R3-6:R3$$$V2.0 | 933 mg | 
12 | PEPTIDE1{R.K.[D-Pen].G.G.[D-Pen].W.T.W.V.[am]}$PEPTIDE1,PEPTIDE1,3:R3-6:R3$$$V2.0 | 1148 mg | 
13 | PEPTIDE1{R.K.[Dap].G.G.D.W.T.W.V.[am]}$PEPTIDE1,PEPTIDE1,3:R3-6:R3$$$V2.0 | 600 mg | 
14 | PEPTIDE1{[dC].[dK].[dI].[dC].G.[dI].[dW].[dT].[dW].[dV].[am]}$PEPTIDE1,PEPTIDE1,1:R3-4:R3$$$V2.0 | 704 mg | 
15 | PEPTIDE1{[dK].[dC].G.G.[dC].[dW].[dT].[dW].[dV].[am]}$PEPTIDE1,PEPTIDE1,2:R3-5:R3$$$V2.0 | 582 mg | 
16 | PEPTIDE1{[dR].[dK].[dC].F.G.[dC].[dW].[dT].[dW].[dV].[am]}$PEPTIDE1,PEPTIDE1,3:R3-6:R3$$$V2.0 | 876 mg | 
17 | PEPTIDE1{[dR].[dK].[dC].G.F.[dC].[dW].[dT].[dW].[dV].[am]}$PEPTIDE1,PEPTIDE1,3:R3-6:R3$$$V2.0 | 948 mg | 
18 | PEPTIDE1{[dR].[dK].[dC].G.G.[dC].[dW].[dT].[dW].[am]}$PEPTIDE1,PEPTIDE1,3:R3-6:R3$$$V2.0 | 700 mg | 
19 | PEPTIDE1{[dR].[dK].[dC].G.[dF].[dC].[dW].[dT].[dW].[dV].[am]}$PEPTIDE1,PEPTIDE1,3:R3-6:R3$$$V2.0 | 901 mg | 
20 | PEPTIDE1{[dR].[dK].[dC].K.F.[dC].[dW].[dT].[dW].[dV].[am]}$PEPTIDE1,PEPTIDE1,3:R3-6:R3$$$V2.0 |  | crude mass (scale 0.75 mmol): 864 mg; isolated mass (scale 0.75 mmol): 76 mg
21 | PEPTIDE1{[dR].[dK].[dC].[Ava].[dC].[dW].[dT].[dW].[dV].[am]}$PEPTIDE1,PEPTIDE1,3:R3-5:R3$$$V2.0 | 796 mg | 
22 | PEPTIDE1{[dR].[dK].[dC].[dA].F.[dC].[dW].[dT].[dW].[dV].[am]}$PEPTIDE1,PEPTIDE1,3:R3-6:R3$$$V2.0 | 601 mg | 
23 | PEPTIDE1{[dR].[dK].[dC].[dF].G.[dC].[dW].[dT].[dW].[dV].[am]}$PEPTIDE1,PEPTIDE1,3:R3-6:R3$$$V2.0 | 917 mg | 
24 | PEPTIDE1{[dR].[dK].[dI].G.[dC].[dI].[dW].[dC].[dW].[dV].[am]}$PEPTIDE1,PEPTIDE1,5:R3-8:R3$$$V2.0 |  | isolated mass (scale 0.5 mmol): 15 mg

— patent US5753617A (Centocor, Inc., priority 1995, dated 1998)
